PubChem BioAssay AID504764, Drosophila RNAi Screening Center – 2011
Screen: 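Knock-downs that raise or lower a Notch target reporter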 (primary screen). System: Drosophila Kc167 cells. Reagents: long dsRNA against Drosophila genes. Duration: about 5 days (4 days dsRNA, then 24 h after transfection). Treatment: transfection of constitutively active membrane-tethered Notch lacking the extracellular domain, read 24 h later. Read-out: 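Firefly luciferase from an E(spl)m3 reporter with active Notch, plus control-promoter and uninduced reporter wells for normalisation; unnormalised counts, duplicate wells a and b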. Reading the numbers: induced reporter light, run 1, well a and induced reporter light, run 1, well b: higher = more light from the Notch target reporter with active Notch; control promoter light, run 1, well a and control promoter light, run 1, well b: higher = more light from the viral control promoter (cell number, transfection, viability); uninduced reporter light, run 1, well a: higher = more light from the Notch target reporter without active Notch. Active means: 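Hit if the duplicate-averaged log2 ratio of induced to control-promoter light gives a plate-wise z beyond ±2, or induced to uninduced beyond ±1.8; weak-control or discordant-duplicate wells dropped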. Calls: active = modifier hit (raised or lowered Notch signal); inactive = not a hit.
The screen tested about 22,000 reagents; shown is an unselected part of those with a known target gene and a result. In the full data, 403 (1.9%) were called active. 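Unnormalised raw counts per well; ratio z-scores behind the hit calls and whether each hit raises or lowers signal are not deposited.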 A plus sign joins genes that one reagent is predicted to hit. Not given: the amount of reagent.

RabX2 [DRSC18234]
- induced reporter light, run 1, well a: 72840
- induced reporter light, run 1, well b: 62540
- control promoter light, run 1, well a: 75405
- control promoter light, run 1, well b: 69470
- uninduced reporter light, run 1, well a: 5420
- call: inactive

CG43795 [DRSC04192]
- induced reporter light, run 1, well a: 2.13e5
- induced reporter light, run 1, well b: 1.69e5
- control promoter light, run 1, well a: 1.86e5
- control promoter light, run 1, well b: 2.02e5
- uninduced reporter light, run 1, well a: 13605
- call: inactive

CG43795 [DRSC04193]
- induced reporter light, run 1, well a: 2.21e5
- induced reporter light, run 1, well b: 2.51e5
- control promoter light, run 1, well a: 2.11e5
- control promoter light, run 1, well b: 2.32e5
- uninduced reporter light, run 1, well a: 16905
- call: inactive

CG43795 [DRSC04194]
- induced reporter light, run 1, well a: 1.49e5
- induced reporter light, run 1, well b: 1.41e5
- control promoter light, run 1, well a: 1.63e5
- control promoter light, run 1, well b: 1.47e5
- uninduced reporter light, run 1, well a: 9375
- call: inactive

CG43795 [DRSC04309]
- induced reporter light, run 1, well a: 1.24e5
- induced reporter light, run 1, well b: 99480
- control promoter light, run 1, well a: 1.39e5
- control promoter light, run 1, well b: 1.32e5
- uninduced reporter light, run 1, well a: 9825
- call: inactive

CG43795 [DRSC04310]
- induced reporter light, run 1, well a: 1.37e5
- induced reporter light, run 1, well b: 1.35e5
- control promoter light, run 1, well a: 1.28e5
- control promoter light, run 1, well b: 1.35e5
- uninduced reporter light, run 1, well a: 9180
- call: inactive

CG43795 [DRSC22826]
- call: inactive

Hira [DRSC18672]
- induced reporter light, run 1, well a: 1.48e5
- induced reporter light, run 1, well b: 1.51e5
- control promoter light, run 1, well a: 2.74e5
- control promoter light, run 1, well b: 2.92e5
- uninduced reporter light, run 1, well a: 11850
- call: inactive

Cyp4c3 (Cytochrome P450 4c3) [DRSC16631]
- induced reporter light, run 1, well a: 2.04e5
- induced reporter light, run 1, well b: 2.52e5
- control promoter light, run 1, well a: 1.31e5
- control promoter light, run 1, well b: 1.18e5
- uninduced reporter light, run 1, well a: 11125
- call: inactive

CG5377 [DRSC15783]
- induced reporter light, run 1, well a: 1.86e5
- induced reporter light, run 1, well b: 1.69e5
- control promoter light, run 1, well a: 2.06e5
- control promoter light, run 1, well b: 2.31e5
- uninduced reporter light, run 1, well a: 16292
- call: inactive

eIF2gamma (eukaryotic translation initiation factor 2 subunit gamma) [DRSC13081]
- induced reporter light, run 1, well a: 5895
- induced reporter light, run 1, well b: 4325
- control promoter light, run 1, well a: 6645
- control promoter light, run 1, well b: 4420
- uninduced reporter light, run 1, well a: 455
- call: inactive

eIF2gamma (eukaryotic translation initiation factor 2 subunit gamma) [DRSC16873]
- induced reporter light, run 1, well a: 1.46e5
- induced reporter light, run 1, well b: 1.34e5
- control promoter light, run 1, well a: 90800
- control promoter light, run 1, well b: 76480
- uninduced reporter light, run 1, well a: 10825
- call: inactive

Gss1 + Gss2 [DRSC20008]
- induced reporter light, run 1, well a: 1.21e5
- induced reporter light, run 1, well b: 1.09e5
- control promoter light, run 1, well a: 1.09e5
- control promoter light, run 1, well b: 1.08e5
- uninduced reporter light, run 1, well a: 13340
- call: inactive

Gss1 + Gss2 [DRSC21539]
- call: inactive

CG15394 [DRSC00408]
- induced reporter light, run 1, well a: 1.31e5
- induced reporter light, run 1, well b: 1.32e5
- control promoter light, run 1, well a: 1.09e5
- control promoter light, run 1, well b: 63645
- uninduced reporter light, run 1, well a: 8740
- call: inactive

CG12065 [DRSC17798]
- induced reporter light, run 1, well a: 2.10e5
- induced reporter light, run 1, well b: 1.77e5
- control promoter light, run 1, well a: 2.08e5
- control promoter light, run 1, well b: 2.00e5
- uninduced reporter light, run 1, well a: 12860
- call: inactive

CG12065 [DRSC17799]
- induced reporter light, run 1, well a: 1.95e5
- induced reporter light, run 1, well b: 1.58e5
- control promoter light, run 1, well a: 3.42e5
- control promoter light, run 1, well b: 3.32e5
- uninduced reporter light, run 1, well a: 10825
- call: inactive

dre4 [DRSC08714]
- induced reporter light, run 1, well a: 69835
- induced reporter light, run 1, well b: 92885
- control promoter light, run 1, well a: 1.11e5
- control promoter light, run 1, well b: 1.66e5
- uninduced reporter light, run 1, well a: 5910
- call: inactive

An excerpt from above, reduced to “uninduced reporter light, run 1, well a”:
CG12065 [DRSC17798]	12860
CG12065 [DRSC17799]	10825
dre4 [DRSC08714]	5910
